Test results: the M2OR odorant receptor database
The list shows a part of the results. Calls are pooled over several reports, among them a noisy single-well screen.

Legend:
Conditions in all cases: stereoisomer not certain
O13J1 = test system: T1, O13J1
T1 sequence (whole entry): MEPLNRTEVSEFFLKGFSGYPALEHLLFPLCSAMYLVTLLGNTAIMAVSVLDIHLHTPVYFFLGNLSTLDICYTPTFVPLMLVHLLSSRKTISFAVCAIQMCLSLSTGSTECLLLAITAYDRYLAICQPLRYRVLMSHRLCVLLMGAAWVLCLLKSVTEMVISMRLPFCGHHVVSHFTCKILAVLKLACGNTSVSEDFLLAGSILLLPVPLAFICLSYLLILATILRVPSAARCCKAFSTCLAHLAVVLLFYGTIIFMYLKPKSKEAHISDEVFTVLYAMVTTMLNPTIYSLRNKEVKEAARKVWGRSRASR
Outline: (§1)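 Transient luciferase assays in mammalian cell lines were common, though methods varied by source. The values come from published papers and their supplementary material, with extra details from the original authors when needed. Responsive refers to a measured signal the original authors judged statistically different from baseline, and non-responsive (inactive) to the remainder.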

O14A2 = test system: T2, O14A2
T2 sequence (whole entry): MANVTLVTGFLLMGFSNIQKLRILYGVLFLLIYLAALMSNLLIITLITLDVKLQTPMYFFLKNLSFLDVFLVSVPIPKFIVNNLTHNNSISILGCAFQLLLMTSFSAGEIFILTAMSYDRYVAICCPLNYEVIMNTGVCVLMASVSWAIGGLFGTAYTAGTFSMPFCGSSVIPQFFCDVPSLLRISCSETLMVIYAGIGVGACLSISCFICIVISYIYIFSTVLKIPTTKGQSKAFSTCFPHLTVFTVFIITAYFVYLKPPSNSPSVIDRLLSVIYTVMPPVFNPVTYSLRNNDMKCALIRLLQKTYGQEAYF
Outline: as §1

O14AG = test system: T3, O14AG
T3 sequence (whole entry): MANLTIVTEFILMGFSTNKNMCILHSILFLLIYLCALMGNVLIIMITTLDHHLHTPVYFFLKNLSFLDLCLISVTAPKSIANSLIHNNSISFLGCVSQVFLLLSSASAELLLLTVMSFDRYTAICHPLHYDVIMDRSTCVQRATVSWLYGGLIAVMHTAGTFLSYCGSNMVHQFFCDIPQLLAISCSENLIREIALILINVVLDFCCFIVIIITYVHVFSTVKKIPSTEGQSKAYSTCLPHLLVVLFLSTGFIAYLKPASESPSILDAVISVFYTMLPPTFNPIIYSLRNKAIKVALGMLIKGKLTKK
Outline: as §1

O14CZ = test system: T4, O14CZ
T4 sequence (whole entry): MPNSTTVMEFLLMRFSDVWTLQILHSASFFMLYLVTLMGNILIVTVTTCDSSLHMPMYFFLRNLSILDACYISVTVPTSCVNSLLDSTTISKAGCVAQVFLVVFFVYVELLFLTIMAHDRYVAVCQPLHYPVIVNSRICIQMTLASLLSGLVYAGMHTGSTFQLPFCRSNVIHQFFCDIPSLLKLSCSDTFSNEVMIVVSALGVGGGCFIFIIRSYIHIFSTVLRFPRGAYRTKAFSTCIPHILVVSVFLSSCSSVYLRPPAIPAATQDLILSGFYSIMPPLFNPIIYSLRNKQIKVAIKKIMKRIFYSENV
Outline: as §1

O14I1 = test system: T5, O14I1
T5 sequence (whole entry): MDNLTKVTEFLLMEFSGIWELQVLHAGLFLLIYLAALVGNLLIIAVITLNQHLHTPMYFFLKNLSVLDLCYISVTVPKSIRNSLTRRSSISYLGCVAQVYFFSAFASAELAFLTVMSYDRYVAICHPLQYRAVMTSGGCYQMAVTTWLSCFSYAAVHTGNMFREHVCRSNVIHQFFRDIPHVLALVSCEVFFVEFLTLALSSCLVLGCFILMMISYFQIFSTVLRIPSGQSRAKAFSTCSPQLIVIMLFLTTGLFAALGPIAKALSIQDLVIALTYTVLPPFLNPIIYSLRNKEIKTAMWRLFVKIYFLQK
Outline: as §1

O14J1 = test system: T6, O14J1
T6 sequence (whole entry): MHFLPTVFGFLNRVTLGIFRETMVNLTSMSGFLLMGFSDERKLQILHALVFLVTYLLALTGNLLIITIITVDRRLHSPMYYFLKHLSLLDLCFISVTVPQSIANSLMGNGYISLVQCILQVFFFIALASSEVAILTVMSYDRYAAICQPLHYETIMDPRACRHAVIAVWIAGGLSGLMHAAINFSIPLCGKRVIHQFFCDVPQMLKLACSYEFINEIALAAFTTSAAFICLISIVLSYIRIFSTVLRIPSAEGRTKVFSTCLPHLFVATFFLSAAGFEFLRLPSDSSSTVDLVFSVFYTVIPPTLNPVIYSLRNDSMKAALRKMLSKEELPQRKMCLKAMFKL
Outline: as §1

O14K1 = test system: T7, O14K1
T7 sequence (whole entry): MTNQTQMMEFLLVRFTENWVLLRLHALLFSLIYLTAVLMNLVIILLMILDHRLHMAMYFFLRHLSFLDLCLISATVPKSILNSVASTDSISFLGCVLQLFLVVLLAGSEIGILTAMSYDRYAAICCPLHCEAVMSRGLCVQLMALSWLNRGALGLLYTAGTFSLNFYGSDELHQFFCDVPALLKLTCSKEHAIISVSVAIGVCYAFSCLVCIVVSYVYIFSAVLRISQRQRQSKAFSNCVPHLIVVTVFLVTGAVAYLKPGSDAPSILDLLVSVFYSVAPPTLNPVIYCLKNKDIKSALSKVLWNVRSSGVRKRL
Outline: as §1

O14L1 = test system: T8, O14L1
T8 sequence (whole entry): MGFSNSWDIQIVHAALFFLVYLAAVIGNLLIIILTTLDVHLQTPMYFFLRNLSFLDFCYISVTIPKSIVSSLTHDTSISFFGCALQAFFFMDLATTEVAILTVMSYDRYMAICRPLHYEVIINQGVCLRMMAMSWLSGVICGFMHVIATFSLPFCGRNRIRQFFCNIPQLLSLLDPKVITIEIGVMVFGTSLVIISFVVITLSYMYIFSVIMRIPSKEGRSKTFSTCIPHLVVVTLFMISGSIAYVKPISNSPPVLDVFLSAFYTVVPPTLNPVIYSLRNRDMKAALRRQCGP
Outline: as §1

O2A14 = test system: T9, O2A14
T9 sequence (whole entry): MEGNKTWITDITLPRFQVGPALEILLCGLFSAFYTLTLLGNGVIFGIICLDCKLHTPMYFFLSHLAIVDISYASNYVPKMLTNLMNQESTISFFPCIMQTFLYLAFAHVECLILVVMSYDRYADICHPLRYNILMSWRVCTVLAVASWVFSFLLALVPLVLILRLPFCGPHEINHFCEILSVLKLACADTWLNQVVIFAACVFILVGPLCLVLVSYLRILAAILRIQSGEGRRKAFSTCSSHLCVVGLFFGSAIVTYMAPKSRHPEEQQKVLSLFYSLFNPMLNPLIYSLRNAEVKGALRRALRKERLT
Outline: as §1

O2AE1 = test system: T10, O2AE1
T10 sequence (whole entry): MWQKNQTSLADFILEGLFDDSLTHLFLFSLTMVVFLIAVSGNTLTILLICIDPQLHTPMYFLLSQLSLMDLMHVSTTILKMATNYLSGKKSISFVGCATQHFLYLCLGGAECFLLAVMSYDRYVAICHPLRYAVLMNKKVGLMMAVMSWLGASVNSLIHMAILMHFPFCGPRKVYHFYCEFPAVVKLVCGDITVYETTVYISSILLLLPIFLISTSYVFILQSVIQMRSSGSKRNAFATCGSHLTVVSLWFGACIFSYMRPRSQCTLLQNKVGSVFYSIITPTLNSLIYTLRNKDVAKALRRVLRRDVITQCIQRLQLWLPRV
Outline: as §1

Measured: odorant receptor agonist call;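 also: active if original authors judged signal statistically different from baseline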

CCCCOC(C)=O
inactive: all assays above
